Some results were stated once for a whole list of compounds, not compound by compound.
Conditions: in words

## S=c1nc(N=CNN2CCCC2)ss1 [Compound 4, N′-(3-thioxo-3H-1,2,4-dithiazol-5-yl)-N-pyrrolidinomethanimidamide]
  Stability in solution: highly stable in solution

## CCCCN(C=Nc1nc(=S)ss1)CCCC [Compound 3, N′-(3-thioxo-3H-1,2,4-dithiazol-5-yl)-N,N-dibutylmethanimidamide]
  Stability in solution: highly stable in solution

## S=c1nc(N=CNN2CCOCC2)ss1 [Compound 5, N′-(3-thioxo-3H-1,2,4-dithiazol-5-yl)-N-morpholinomethanimidamide]
  Stability in solution: highly stable in solution

## CCN(C=Nc1nc(=S)ss1)CC [Compound 2, N′-(3-thioxo-3H-1,2,4-dithiazol-5-yl)-N,N-diethylmethanimidamide]
  Stability in solution: highly stable in solution

Reference: patent US7723528B2, “Sulfur transfer reagents for oligonucleotide synthesis” (AM Chemicals LLC, priority 2008, dated 2010)
